Screen size: about 360,000 compounds; about 7,500 (2.1%) were called active. The inconclusive results got no clear call from the source; some entries with a clear call stand among them for comparison. Calls follow the shape of the dose curve; as a rule, active = well fitted inhibition curve with a large enough effect; inconclusive = small, poorly fitted or top-dose-only effect, or effect the other way; inactive = flat fitted curve, though single readings scatter. A potency beside an inconclusive call is a rough fit, not a confirmed value.
experiment: Nrf2 qHTS screen for inhibitors; conditions: A549 ARE-Fluc reporter, luciferase luminescence, 18-24 h; activity change, negative = inhibition: at 46 µM (top of the series); also: nearly all actives have a fitted effect of over 60% in size
Outline: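 Nrf2 function is reported as luminescence of an ARE-controlled luciferase in A549 cells. Compounds were tested at several concentrations, and a CellTiter-Fluor read on the same wells flagged cytotoxicity.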
% is scaled to controls: 0 for no effect and ±100 for the full control effect; potency is read from the fitted curve at half-maximal effect.

Question: Which Potency does the source give for `C=CCc1ccc(OCCCNC2CCCC2)c(OC)c1` here?
Answer: inconclusive: 29.1 µM [activator, single point]

Question: Which Potency does the source give for `CCOC(=O)c1c(NC(=O)c2nn(CC)cc2Br)c(C#N)nn1-c1ccccc1` here?
Answer: inconclusive: 20.6 µM [falling, partial curve, poor fit]

Question: For `CCOC(=O)c1cnc2c(N=Nc3ccccc3)c(N)nn2c1N`, which Potency is on record?
Answer: inconclusive: 0.731 µM [activator, full curve, poor fit]

Question: With `Cc1ccc(-c2noc(CNC(=O)c3ccc4c(c3)OCO4)n2)cc1` as the compound, how does the Potency read?
Answer: inconclusive: 2.91 µM [activator, single point]

Question: Which Potency does the source give for `CC(=O)c1cccc(Nc2c([N+](=O)[O-])c(=O)oc3ccccc23)c1` here?
Answer: inconclusive: 18.4 µM [activator, partial curve, poor fit]

Question: Which Potency does the source give for `COCCn1c(C(C)C)nc2oc3ccccc3c(=O)c2c1=O` here?
Answer: inconclusive: 25.9 µM [activator, single point]

Question: With `CN(C)c1ccc(C=c2c3cc([N+](=O)[O-])ccc3n3c2cc(-c2ccccc2)[n+]3C)cc1` as the compound, how does the Potency read?
Answer: active: 8.2 µM

Question: With `Cc1ccccc1-c1nc(CS(=O)(=O)CC(=O)N2CCN(c3ccccc3)CC2)c(C)o1` as the compound, how does the Potency read?
Answer: inconclusive: 23.1 µM [falling, single point]

Question: For `CCCCNC(=O)CCn1c(=O)c2ccccc2n(Cc2ccccc2C#N)c1=O`, which Potency is on record?
Answer: inactive

Question: With `CCC(=O)N1CCc2cc(Br)cc(S(=O)(=O)N3CCCC(C(=O)Nc4cccc(Cl)c4C)C3)c21` (stereo not drawn) as the compound, how does the Potency read?
Answer: inactive

Question: For `CCOc1ccc(CC(=O)Nc2c(C(=O)c3ccc(C)cc3)oc3ccccc23)cc1OCC`, which Potency is on record?
Answer: inconclusive: 29.1 µM [falling, single point]

Question: With `Cc1ccnc(N2C3CCC2CC(O)(c2ccccc2)C3)n1` (stereo not drawn) as the compound, how does the Potency read?
Answer: inactive

Question: Which Potency does the source give for `Cc1ccc(C(=O)COC(=O)C(CC(C)C)NC(=O)C2CCC(C)CC2)cc1` (stereo not drawn) here?
Answer: inconclusive: 32.6 µM [falling, partial curve, poor fit]

Question: Which Potency does the source give for `Cc1cc(C)c(OCC(=O)Nc2cccc(NC(=O)c3ccco3)c2)c(Br)c1` here?
Answer: inconclusive: 23.1 µM [falling, partial curve, poor fit]

Question: Which Potency does the source give for `O=C(CCCN1Cc2ccccc2C1)c1ccc(F)cc1` here?
Answer: inconclusive: 3.66 µM [activator, full curve]

Question: With `COc1cccc(C(=O)Nc2cc(-c3ccccc3)no2)c1` as the compound, how does the Potency read?
Answer: inconclusive: 29.1 µM [activator, single point]

Question: Which Potency does the source give for `CCOC(=O)c1cc(-c2ccc(C)cc2)n(CCC(=O)N2CCN(c3ccccn3)CC2)c1C` here?
Answer: inactive

Question: Which Potency does the source give for `COc1ccc(-c2nn(C)c(=O)[nH]2)cc1` here?
Answer: inconclusive: 29.1 µM [falling, single point]

Question: Which Potency does the source give for `Cc1c(-c2nc(N)nc(Nc3ccccc3)n2)oc2ccccc12` here?
Answer: inactive

Question: Which Potency does the source give for `Nc1cc(Cc2ccccc2)ccc1O` here?
Answer: inactive

Question: With `CC(C)(C)CNC(=O)[C@]1(C)CCC[C@@]2(C)C3CC[C@@]4(C)C[C@]3(CCC21)CC4=O` (stereo partly drawn) as the compound, how does the Potency read?
Answer: inconclusive: 20.6 µM [falling, partial curve, poor fit]

Question: For `CCC1CCCCN1CCCNC(=O)CS(=O)Cc1nc(-c2ccc(OC)c(OC)c2)oc1C` (stereo not drawn), which Potency is on record?
Answer: inconclusive: 29.1 µM [falling, partial curve, poor fit]

Question: With `CCc1nnc(N2CCN(c3ncnc4c3oc3ccccc34)CC2)s1` as the compound, how does the Potency read?
Answer: active: 10.3 µM

Question: Which Potency does the source give for `CCOC(=O)[C@H]1[C@H]2COc3ccc(Cl)cc3[C@@H]2N2C(=O)c3cc(Cl)ccc3NC(=O)[C@@]12C` here?
Answer: inconclusive: 18.4 µM [falling, single point]

Question: With `CN(Cc1ccccc1)C(=O)c1ccc(NC(=O)C2CCCN(C(=O)OC(C)(C)C)C2)cc1` (stereo not drawn) as the compound, how does the Potency read?
Answer: inconclusive: 20.6 µM [falling, single point]

Question: For `CCOC(=O)c1cc(C)n(CC2CCC(C(=O)Nc3ccc(Cl)cc3)CC2)c1C` (stereo not drawn), which Potency is on record?
Answer: active: 8.2 µM

Question: For `CC(=O)Nc1nnc(Cc2c[nH]c3ccccc23)s1`, which Potency is on record?
Answer: inconclusive: 0.517 µM [falling, partial curve, poor fit]

Question: For `Cc1cccc(OCCCCCn2ccnc2)c1C`, which Potency is on record?
Answer: inconclusive: 25.9 µM [falling, single point]

Question: With `O=C(/C=C/c1ccccc1)NC(NC(=S)Nc1ccc(Cl)cc1)C(Cl)(Cl)Cl` (stereo not drawn) as the compound, how does the Potency read?
Answer: active: 6.51 µM

Question: For `O=C(Nc1ncccc1O)c1ccc2c(c1)OCCO2`, which Potency is on record?
Answer: inconclusive: 3.26 µM [activator, single point]

Question: Which Potency does the source give for `O=C(Nc1ccc(CN2CCOCC2)cc1)c1cc2ccccc2o1` here?
Answer: inconclusive: 0.731 µM [activator, full curve, poor fit]

Question: With `CN(C)c1nc(N)nc(/C(C#N)=C/C2CC3C=CC2C3)n1` (stereo not drawn) as the compound, how does the Potency read?
Answer: inconclusive: 16.4 µM [activator, partial curve]

Question: With `O=[N+]([O-])c1ccc(F)cc1OCc1nc(-c2cccs2)no1` as the compound, how does the Potency read?
Answer: inconclusive: 10.3 µM [activator, partial curve, poor fit]

Question: With `COc1ccc(CNC(=O)C2CCCN(C(=O)Nc3ccc(OC)cc3)C2)cc1` (stereo not drawn) as the compound, how does the Potency read?
Answer: inactive

Question: Which Potency does the source give for `COc1ccc2cc(CCNC(=O)c3ccc(S(=O)(=O)N4CCOCC4)cc3)c(=O)[nH]c2c1` here?
Answer: inconclusive: 32.6 µM [falling, single point]

Question: For `Cn1nnnc1SCCNCc1ccc(Cl)cc1`, which Potency is on record?
Answer: inconclusive: 0.0517 µM [falling, partial curve, poor fit]

Question: Which Potency does the source give for `Cn1c(/C=C/c2ccccc2)nc2ccccc21` here?
Answer: inconclusive: 1.46 µM [activator, partial curve]

Question: Which Potency does the source give for `Cc1ccc2cccc(NC(=O)c3ccc(-c4cccc([N+](=O)[O-])c4)o3)c2n1` here?
Answer: inactive

Question: Which Potency does the source give for `CCC1(C)Cc2c(C#N)c(SC)nc(N3CCOCC3)c2CO1` (stereo not drawn) here?
Answer: inconclusive: 5.17 µM [falling, partial curve, poor fit]

Question: With `CCC(C)C(=O)N1CCCC(c2nc(-c3cccs3)no2)C1` (stereo not drawn) as the compound, how does the Potency read?
Answer: inconclusive: 3.66 µM [activator, partial curve, poor fit]

Question: With `CCCCNC(=O)CSc1nc2nc(C)c(Cc3ccccc3C)c(C)n2n1` as the compound, how does the activity change, negative = inhibition read?
Answer: inactive: -7.44% [at 9.27 µM]

Question: With `Cc1ccc(C2=C(c3ccc([N+](=O)[O-])cc3)C(=O)OC2)cc1C` as the compound, how does the Potency read?
Answer: active: 23.1 µM

Question: For `CCC(=O)N1CN(S(=O)(=O)c2ccc(C)cc2)CC1C` (stereo not drawn), which Potency is on record?
Answer: inconclusive: 0.0073 µM [falling, full curve, poor fit]

Question: For `Cc1cc(=O)[nH]c(SCC(=O)/C=C2\N(C)c3ccccc3C2(C)C)n1`, which Potency is on record?
Answer: inconclusive: 14.6 µM [falling, single point]

Question: For `CCOc1ccc(-c2nc(-c3cccnc3)no2)cc1`, which Potency is on record?
Answer: inconclusive: 0.731 µM [activator, partial curve]

Question: For `O=C(NCCc1ccccc1)c1cccnc1`, which Potency is on record?
Answer: inconclusive: 18.4 µM [activator, single point]

Question: With `Cc1cc2nc(C3CCCN(C(=S)Nc4ccccc4)C3)[nH]c2cc1C` (stereo not drawn) as the compound, how does the Potency read?
Answer: inconclusive: 0.651 µM [falling, full curve]

Question: Which Potency does the source give for `O=C(CC1CCCC1)Nc1ccc(Br)cc1` here?
Answer: inconclusive: 4.61 µM [activator, full curve]

Question: For `COc1ccc(/C(C)=N/NC(=O)c2ccc(CSc3cccc4cccnc34)cc2)cc1OC`, which Potency is on record?
Answer: inconclusive: 32.6 µM [falling, single point]

Question: With `Cc1cc(S(=O)(=O)Nc2ccc(C(=O)N3CC(C)OC(C)C3)cc2)ccc1F` (stereo not drawn) as the compound, how does the Potency read?
Answer: inconclusive: 7.31 µM [falling, partial curve, poor fit]

Question: For `O=C(NC1CCCCCCC1)c1cnccn1`, which Potency is on record?
Answer: inconclusive: 1.16 µM [activator, partial curve, poor fit]

Question: Which Potency does the source give for `CCOc1cc(C)nc(NCCc2ccc(OC)c(OC)c2)n1` here?
Answer: active: 25.9 µM

Question: For `COc1ccc(/C=N\NC(=O)c2ccccc2F)cc1COc1ccc(F)cc1F`, which Potency is on record?
Answer: inactive

Question: With `CCOC(=O)c1sc(NC(=O)CSC(=S)N2CCN(C)CC2)nc1C` as the compound, how does the Potency read?
Answer: inconclusive: 29.1 µM [falling, single point]

Question: Which Potency does the source give for `CCOc1ccc(N(CC(=O)Nc2ccc(OC)cc2)S(=O)(=O)c2c(C)[nH]c(=O)[nH]c2=O)cc1` here?
Answer: inactive

Question: For `COC(=O)c1ccc(NC(=O)c2cc(S(=O)(=O)N3CCc4ccccc43)cn2C)cc1`, which Potency is on record?
Answer: inconclusive: 23.1 µM [falling, single point]

Question: For `COc1ccc(C2Nc3ccccc3C(=O)N2Cc2ccco2)cc1OC` (stereo not drawn), which Potency is on record?
Answer: inactive

Question: Which Potency does the source give for `O=c1cc(NCc2ccco2)c2ccccc2o1` here?
Answer: inactive

Question: Which Potency does the source give for `CCCc1nc(C)c2c(=O)[nH]c(-c3cc(S(=O)(=O)N4CCN(CC)CC4)ccc3OCC)nn12` here?
Answer: inactive

Question: With `COC(=O)C1=CN(c2cccc(C)c2)C=C(C(=O)OC)C1c1cc(OC)c(O)c([N+](=O)[O-])c1` as the compound, how does the Potency read?
Answer: inconclusive: 29.1 µM [falling, single point]

Question: Which Potency does the source give for `CCOc1ccccc1NC(=O)Cn1cnc2onc(-c3ccc(F)cc3)c2c1=O` here?
Answer: inconclusive: 20.6 µM [activator, partial curve, poor fit]

Question: With `O=C(OCc1cc(=O)n2nc(C3CC3)sc2n1)c1ccc(F)cc1` as the compound, how does the Potency read?
Answer: inconclusive: 16.4 µM [activator, single point]

Question: Which Potency does the source give for `Cc1ccc(C(=O)N/N=C/c2ccc3c(c2)OCO3)o1` here?
Answer: inconclusive: 4.61 µM [activator, partial curve]

Question: With `CCCSc1nnc(NC(=O)CSc2sc3c(O)cc(=O)[nH]c3c2C#N)s1` as the compound, how does the Potency read?
Answer: inactive

Question: Which Potency does the source give for `N#Cc1ccccc1Cn1cc(C#N)c2ccccc21` here?
Answer: inconclusive: 32.6 µM [falling, partial curve, poor fit]

Question: Which Potency does the source give for `COc1ccc(/C=N/NC(=O)c2cc(C(C)(C)C)[nH]n2)cc1COc1ccc(F)cc1F` here?
Answer: active: 20.6 µM

Question: For `Cc1ccc(NS(=O)(=O)c2cc(OCC(N)=O)c(C)cc2Cl)cc1C`, which Potency is on record?
Answer: inconclusive: 12.6 µM [falling, single point]

Question: For `CN(C)c1ccc(/C=N/NC(=O)CSc2ccccn2)cc1`, which Potency is on record?
Answer: inconclusive: 2.91 µM [activator, full curve, poor fit]

From PubChem BioAssay AID504444 (National Center for Advancing Translational Sciences (NCATS), 2011)
